Test results as given in paper PMC8155215, “The splicing factor XAB2 interacts with ERCC1-XPF and XPG for R-loop processing”.
Results are given in words; binding and its absence hold for the method and conditions named. In cells and extracts the contact can be indirect. Here binding means that the protein was enriched with, or labelled near, the bait; the list need not be complete. Sequences can lack the tags named with a protein.

Amino acid sequences for entries named in this document (tags omitted). Residues count along the entry.
UniProt Q9QY81, residues 27-1886: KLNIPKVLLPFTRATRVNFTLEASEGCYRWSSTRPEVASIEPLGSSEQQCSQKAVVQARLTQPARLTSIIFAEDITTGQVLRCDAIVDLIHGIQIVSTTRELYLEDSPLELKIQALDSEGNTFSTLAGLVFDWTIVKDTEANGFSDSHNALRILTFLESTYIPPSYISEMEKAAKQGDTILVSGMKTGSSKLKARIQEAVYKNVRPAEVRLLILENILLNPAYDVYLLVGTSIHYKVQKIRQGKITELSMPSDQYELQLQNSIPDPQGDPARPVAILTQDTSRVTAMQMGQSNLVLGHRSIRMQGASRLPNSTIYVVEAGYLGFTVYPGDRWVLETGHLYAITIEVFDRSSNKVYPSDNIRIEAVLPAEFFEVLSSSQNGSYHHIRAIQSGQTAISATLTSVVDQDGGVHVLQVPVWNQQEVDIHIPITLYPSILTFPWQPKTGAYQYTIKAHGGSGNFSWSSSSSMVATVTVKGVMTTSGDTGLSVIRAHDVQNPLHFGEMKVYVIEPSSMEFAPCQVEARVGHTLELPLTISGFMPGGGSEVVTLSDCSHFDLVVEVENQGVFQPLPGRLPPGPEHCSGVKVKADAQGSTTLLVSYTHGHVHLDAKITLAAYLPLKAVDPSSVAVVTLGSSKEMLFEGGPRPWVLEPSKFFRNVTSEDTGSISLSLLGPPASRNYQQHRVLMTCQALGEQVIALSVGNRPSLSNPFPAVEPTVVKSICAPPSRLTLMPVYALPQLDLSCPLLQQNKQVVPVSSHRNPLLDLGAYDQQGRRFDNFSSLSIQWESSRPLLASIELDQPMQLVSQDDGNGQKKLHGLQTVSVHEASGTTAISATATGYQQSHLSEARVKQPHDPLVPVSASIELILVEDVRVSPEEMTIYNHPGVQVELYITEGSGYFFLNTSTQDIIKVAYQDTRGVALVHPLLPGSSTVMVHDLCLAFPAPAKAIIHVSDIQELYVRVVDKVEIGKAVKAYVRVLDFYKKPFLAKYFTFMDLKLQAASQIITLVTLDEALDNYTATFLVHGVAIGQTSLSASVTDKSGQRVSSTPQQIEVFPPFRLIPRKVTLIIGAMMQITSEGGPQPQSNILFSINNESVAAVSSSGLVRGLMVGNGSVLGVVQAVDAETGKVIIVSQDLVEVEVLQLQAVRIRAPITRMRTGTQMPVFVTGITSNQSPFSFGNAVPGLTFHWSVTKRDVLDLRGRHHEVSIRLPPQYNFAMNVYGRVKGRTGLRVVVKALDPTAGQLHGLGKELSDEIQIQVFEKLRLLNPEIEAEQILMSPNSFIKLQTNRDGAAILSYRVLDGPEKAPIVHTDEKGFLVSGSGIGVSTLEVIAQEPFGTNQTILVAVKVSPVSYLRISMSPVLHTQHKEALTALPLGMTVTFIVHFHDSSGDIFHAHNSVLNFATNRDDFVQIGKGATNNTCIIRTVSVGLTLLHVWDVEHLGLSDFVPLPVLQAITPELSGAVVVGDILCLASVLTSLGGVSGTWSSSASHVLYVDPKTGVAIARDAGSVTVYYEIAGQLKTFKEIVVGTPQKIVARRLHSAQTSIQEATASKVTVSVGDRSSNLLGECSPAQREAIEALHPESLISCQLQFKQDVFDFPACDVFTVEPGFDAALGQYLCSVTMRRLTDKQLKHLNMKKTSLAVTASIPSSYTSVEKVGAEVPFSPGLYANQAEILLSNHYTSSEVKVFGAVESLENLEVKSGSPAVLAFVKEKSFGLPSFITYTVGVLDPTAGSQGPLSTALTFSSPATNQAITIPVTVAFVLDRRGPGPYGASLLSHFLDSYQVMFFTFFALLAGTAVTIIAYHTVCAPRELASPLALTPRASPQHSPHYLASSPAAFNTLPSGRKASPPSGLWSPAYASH
UniProt A2A6Q5: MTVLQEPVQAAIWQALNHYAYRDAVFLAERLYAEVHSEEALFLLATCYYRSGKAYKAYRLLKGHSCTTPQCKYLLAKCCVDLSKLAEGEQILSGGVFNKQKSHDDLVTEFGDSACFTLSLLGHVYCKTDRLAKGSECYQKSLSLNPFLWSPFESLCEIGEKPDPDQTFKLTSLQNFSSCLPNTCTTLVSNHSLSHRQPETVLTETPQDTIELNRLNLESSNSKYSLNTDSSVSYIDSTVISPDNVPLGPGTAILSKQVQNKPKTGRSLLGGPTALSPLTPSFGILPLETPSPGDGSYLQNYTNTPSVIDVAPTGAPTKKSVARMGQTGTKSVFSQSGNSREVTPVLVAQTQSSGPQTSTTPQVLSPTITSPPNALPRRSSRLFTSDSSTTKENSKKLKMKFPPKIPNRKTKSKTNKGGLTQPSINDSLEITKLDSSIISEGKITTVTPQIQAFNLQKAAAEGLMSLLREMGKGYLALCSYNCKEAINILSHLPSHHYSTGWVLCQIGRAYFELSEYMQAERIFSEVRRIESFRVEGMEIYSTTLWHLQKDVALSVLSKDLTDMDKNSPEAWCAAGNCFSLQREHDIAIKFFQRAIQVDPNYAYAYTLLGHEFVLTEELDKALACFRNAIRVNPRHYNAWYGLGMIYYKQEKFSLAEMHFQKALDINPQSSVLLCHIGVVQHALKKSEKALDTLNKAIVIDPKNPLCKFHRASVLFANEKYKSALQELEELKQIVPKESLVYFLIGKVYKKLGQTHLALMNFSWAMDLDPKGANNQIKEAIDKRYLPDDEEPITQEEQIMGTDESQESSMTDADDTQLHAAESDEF
UniProt Q8BZQ7: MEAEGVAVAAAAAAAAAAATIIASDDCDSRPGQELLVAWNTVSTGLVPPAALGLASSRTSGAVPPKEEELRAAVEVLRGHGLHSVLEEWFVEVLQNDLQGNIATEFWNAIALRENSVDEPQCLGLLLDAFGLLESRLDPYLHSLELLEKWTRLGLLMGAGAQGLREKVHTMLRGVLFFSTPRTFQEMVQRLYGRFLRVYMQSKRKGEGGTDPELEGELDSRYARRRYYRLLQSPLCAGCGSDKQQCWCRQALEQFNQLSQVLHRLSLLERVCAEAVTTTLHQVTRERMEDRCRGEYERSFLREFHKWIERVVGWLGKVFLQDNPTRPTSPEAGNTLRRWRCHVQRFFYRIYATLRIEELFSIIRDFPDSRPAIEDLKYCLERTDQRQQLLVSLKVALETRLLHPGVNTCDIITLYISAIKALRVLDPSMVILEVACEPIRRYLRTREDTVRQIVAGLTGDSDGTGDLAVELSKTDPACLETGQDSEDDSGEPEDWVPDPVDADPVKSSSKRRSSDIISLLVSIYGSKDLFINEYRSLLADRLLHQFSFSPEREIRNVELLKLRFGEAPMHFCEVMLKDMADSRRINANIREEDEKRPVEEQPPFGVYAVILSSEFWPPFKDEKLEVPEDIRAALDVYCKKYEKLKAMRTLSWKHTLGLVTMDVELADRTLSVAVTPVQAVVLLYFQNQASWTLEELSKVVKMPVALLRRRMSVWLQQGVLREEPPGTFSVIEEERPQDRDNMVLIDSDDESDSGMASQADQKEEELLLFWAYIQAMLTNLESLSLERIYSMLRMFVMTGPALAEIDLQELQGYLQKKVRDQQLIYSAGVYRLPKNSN
UniProt Q99KP6: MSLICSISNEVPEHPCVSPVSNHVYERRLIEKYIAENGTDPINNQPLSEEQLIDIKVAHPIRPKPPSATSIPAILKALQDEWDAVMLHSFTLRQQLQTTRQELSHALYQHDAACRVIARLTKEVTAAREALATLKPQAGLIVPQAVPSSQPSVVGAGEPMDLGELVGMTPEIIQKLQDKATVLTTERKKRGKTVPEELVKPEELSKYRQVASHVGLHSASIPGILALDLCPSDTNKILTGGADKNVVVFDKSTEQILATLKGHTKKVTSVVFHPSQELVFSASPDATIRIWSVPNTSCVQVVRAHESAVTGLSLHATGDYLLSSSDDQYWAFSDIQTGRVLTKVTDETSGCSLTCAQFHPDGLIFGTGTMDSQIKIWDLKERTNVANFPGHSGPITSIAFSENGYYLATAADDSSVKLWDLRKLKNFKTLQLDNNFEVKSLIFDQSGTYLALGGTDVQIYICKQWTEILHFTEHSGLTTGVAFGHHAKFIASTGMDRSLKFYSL
UniProt Q9R1K5: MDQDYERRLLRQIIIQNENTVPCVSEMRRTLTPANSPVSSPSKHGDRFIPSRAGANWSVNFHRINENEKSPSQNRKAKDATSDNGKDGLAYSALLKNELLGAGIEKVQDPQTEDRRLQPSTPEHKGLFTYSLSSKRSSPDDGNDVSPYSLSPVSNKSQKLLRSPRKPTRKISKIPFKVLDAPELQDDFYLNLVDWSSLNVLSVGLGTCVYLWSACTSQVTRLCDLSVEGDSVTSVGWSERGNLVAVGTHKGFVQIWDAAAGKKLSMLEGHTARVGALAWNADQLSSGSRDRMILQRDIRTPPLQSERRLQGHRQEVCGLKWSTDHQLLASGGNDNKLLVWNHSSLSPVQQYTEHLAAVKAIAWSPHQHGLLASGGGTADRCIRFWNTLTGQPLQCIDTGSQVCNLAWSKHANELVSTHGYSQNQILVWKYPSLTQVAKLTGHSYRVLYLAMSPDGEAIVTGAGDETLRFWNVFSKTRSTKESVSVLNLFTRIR
UniProt Q6PGF5: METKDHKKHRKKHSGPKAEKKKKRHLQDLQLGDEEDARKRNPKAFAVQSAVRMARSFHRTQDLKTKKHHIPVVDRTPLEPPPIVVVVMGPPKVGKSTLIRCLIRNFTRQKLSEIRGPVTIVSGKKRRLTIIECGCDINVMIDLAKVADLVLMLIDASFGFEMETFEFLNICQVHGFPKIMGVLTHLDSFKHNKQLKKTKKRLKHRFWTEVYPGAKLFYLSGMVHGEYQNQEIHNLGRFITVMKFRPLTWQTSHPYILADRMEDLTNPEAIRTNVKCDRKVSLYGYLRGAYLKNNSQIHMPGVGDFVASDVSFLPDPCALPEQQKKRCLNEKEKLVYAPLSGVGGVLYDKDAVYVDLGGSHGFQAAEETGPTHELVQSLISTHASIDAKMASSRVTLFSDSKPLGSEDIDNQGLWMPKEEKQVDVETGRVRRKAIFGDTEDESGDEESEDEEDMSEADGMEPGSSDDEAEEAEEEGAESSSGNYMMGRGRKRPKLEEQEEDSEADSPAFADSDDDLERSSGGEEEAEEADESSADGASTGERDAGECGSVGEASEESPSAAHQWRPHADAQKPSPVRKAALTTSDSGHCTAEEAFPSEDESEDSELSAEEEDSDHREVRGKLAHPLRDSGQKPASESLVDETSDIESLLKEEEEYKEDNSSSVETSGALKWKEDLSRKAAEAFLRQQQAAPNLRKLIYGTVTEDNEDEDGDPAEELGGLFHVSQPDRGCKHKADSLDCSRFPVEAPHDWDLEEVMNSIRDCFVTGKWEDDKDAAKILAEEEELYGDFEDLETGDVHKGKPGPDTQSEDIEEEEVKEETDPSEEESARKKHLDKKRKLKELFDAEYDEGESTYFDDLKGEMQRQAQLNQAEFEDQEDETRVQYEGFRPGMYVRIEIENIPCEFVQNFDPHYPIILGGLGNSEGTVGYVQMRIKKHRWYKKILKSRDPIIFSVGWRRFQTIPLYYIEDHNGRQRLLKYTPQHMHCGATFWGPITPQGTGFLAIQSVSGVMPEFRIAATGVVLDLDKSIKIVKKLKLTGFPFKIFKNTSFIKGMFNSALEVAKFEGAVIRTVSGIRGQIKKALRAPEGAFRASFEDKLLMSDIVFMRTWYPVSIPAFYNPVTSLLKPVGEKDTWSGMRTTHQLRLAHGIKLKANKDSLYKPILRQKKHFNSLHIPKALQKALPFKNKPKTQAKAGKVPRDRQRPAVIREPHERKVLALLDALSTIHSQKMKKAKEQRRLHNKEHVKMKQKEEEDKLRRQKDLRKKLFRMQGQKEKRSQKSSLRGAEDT
UniProt Q8BTZ4: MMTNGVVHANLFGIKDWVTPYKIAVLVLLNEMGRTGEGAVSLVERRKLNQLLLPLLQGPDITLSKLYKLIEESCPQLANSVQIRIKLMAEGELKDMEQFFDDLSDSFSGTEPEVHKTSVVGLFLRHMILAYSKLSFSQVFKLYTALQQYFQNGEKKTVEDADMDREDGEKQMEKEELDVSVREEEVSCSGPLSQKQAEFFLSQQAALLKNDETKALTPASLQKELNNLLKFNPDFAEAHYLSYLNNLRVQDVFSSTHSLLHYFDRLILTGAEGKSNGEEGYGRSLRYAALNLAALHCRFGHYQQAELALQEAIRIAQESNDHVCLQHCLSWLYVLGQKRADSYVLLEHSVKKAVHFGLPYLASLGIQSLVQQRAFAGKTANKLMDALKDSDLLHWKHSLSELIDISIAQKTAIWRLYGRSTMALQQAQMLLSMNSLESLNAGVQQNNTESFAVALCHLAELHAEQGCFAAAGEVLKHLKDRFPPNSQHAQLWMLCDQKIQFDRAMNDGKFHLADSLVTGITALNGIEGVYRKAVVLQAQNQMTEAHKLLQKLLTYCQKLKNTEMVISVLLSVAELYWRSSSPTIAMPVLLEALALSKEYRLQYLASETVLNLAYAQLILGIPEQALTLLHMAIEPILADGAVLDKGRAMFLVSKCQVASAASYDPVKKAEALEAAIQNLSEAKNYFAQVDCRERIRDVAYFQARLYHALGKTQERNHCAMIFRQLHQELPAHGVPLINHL

T1: biotin-tagged XAB2 (XPA-binding protein 2) from aviXab2+/+;birA knock-in mice (mouse) (UniProt Q9DCD2)
T1 sequence (chain, biotin on the 15aa Avitag (added in vivo by the BirA ligase)): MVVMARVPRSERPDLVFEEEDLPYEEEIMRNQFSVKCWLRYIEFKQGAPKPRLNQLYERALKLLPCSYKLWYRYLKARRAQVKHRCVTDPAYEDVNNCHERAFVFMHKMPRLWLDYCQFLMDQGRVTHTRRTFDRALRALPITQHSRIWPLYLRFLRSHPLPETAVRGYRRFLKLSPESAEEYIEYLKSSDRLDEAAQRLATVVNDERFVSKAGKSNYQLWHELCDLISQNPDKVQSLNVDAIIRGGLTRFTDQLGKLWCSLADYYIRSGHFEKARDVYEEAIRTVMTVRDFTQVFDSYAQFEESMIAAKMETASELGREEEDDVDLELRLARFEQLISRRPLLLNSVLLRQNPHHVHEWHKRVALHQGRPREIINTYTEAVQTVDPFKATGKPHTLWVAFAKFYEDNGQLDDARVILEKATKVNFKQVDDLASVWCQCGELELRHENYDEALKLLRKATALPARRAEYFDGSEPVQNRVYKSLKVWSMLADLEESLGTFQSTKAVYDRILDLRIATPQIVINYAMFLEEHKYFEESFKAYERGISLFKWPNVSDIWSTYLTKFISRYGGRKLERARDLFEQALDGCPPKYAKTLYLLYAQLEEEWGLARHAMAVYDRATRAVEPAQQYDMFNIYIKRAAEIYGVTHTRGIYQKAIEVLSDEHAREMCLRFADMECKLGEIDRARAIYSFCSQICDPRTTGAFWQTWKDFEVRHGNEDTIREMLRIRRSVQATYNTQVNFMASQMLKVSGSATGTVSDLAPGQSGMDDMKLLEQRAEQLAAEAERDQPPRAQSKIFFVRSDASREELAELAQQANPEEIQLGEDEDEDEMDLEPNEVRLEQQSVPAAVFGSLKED

B1: Aquarius (AQR) (protein, UniProt Q8CFQ3 1-1481)
chain: MAAPAQPKKIVAPTVSQINAEFVTQLACKYWAPHIKKKSPFDIKVIEEIYEKEIVKSRFAIRKIMLLEFSQYLENYLWMNYSPEVSSKAYLMSICCMVNEKFRENVPAWETFKKKPDHFPFFFKCILKAALAETDGEFSLHEQTLLLLFLDHCFNSLEVDLIRSQVQQLISLPMWMGLQPARLELELKKTPKLRKFWNLIKKNDEKMDPEAREQAYQERRFLSRLIQKFISVLKSIPLSEPVTMDKVHYCERFIELMIDLEALLPTRRWFNTILDDSHLLVHCYLSSLVHREEDGHLFSQLLDMLKFYTGFEINDQTGNALTENEMTTIHYDRITSLQRAAFAHFPELYDFALSNVAEVDARDSLVKFFGPLSSNTLHQVASYLCLLPTLPKNEDTTFDKEFLLELLVSRHERRISQIQQLNQMPLYPTEKIIWDENIVPTEYYSGEGCLALPKLNLQFLTLHDYLLRNFNLFRLESTYEIRQDIEDSVSRMKPWQSEYGGVVFGGWARMAQPIVAFTVVEVAKPNIGENWPTRVRADVTINLNVRDHIKDEWEGLRKHDVCFLITVRPTKPYGTKFDRRRPFIEQVGLVYVRGCEIQGMLDDKGRVIEDGPEPRPNLRGESRTFRVFLDPNQYQQDMTNTIQNGAEDVYDTFNVIMRRKPKENNFKAVLETIRNLMNTDCVVPDWLHDIILGYGDPSSAHYSKMPNQIATLDFNDTFLSIEHLKASFPGHNVKVTVSDPALQIPPFRITFPVRSGKGKKRKDADGEEDDTEEAKTLIVEPHVIPNRGPYPYNQPKRNTIQFTHTQIEAIRAGMQPGLTMVVGPPGTGKTDVAVQIISNIYHNFPEQRTLIVTHSNQALNQLFEKIMALDIDERHLLRLGHGEEELETEKDFSRYGRVNYVLARRIELLEEVKRLQKSLGVPGDASYTCETAGYFFLYQVMSRWEEYMSRVKNSGTACPDAAPDAAQVATFFPFHEYFANAPQPIFKGRSYEEDMEIAEGCFRHIKKIFTQLEEFRASELLRSGLDRSKYLLVKEAKIIAMTCTHAALKRHDLVKLGFKYDNILMEEAAQILEIETFIPLLLQNPQDGFSRLKRWIMIGDHHQLPPVIKNMAFQKYSNMEQSLFTRFVRVGVPTVDLDAQGRARASLCNLYNWRYKNLGNLPHVQLLPEFSTANAGLLYDFQLINVEDFQGVGESEPNPYFYQNLGEAEYVVALFMYMCLLGYPADKISILTTYNGQKHLIRDIINRRCGNNPLIGRPNKVTTVDRFQGQQNDYILLSLVRTRAVGHLRDVRRLVVAMSRARLGLYIFARVSLFQNCFELTPAFSQLTARPLHLHIIPTEPFPTSRKNGERPPHEVQVIKNMPQMANFVYNMYMHLIQTTHHYHQTFLQLPPAMVEEGEEGQSQETEMEAEEETVSAQGNLTPSPADASLSQETPAAQPDCSSQTEDTSAPCDIATAAEPVSAAAEAATPQDAESVPTETE
B2: NUP50 (protein, UniProt Q9JIH2 1-466)
chain: MAKRVAEKELTDRNWDEEDEVEEMGTFSVASEEVMKNRAVKKAKRRNVGFESDSGGAFKGFKGLVVPSGGGGFSGFGGSGGKPLEGLTNGNSTDNATPFSNVKTAAEPKAAFGSFAVNGPTTLVDKKISSPKCNNSNQPPSSGPASSTACPGNAYHKQLAGLNCSVRDWIVKHVNTNPLCDLTPIFKDYERYLATIEKQLENGGGSSSESQTDRATAGMEPPSLFGSTKLQQESPFSFHGNKAEDTSEKVEFTAEKKSDAAQGATSASFSFGKKIESSALGSLSSGSLTGFSFSAGSSSLFGKDAAQSKAASSLFSAKASESPAGGGSSECRDGEEEENDEPPKVVVTEVKEEDAFYSKKCKLFYKKDNEFKEKGVGTLHLKPTATQKTQLLVRADTNLGNILLNVLIAPNMPCTRTGKNNVLIVCVPNPPLDEKQPTLPATMLIRVKTSEDADELHKILLEKKDA
B3: NUPl2 (protein, UniProt Q8CIC2 1-420)
chain: MTICQFFLQGRCRFGDRCWNEHPGARGAGGARQPPPQQQPPSGNNRRGWNASSQRYSNVIQPSSFPKSTPWGGSRDQDKPPFGSFDSGASTSRGFGSSQNPFASPLSDEQKDEKKLLEGIVKDVEVWESSGQWMFSVYSPVRKKPNISGFTDISPEELRLEYHNFLTSNNLQSYLNSVQQLVSQWRNRINELKNLTMSTKGALLSDVKDGVSQAVPAFGFGSKQAGSFGSPGFPVNNSSSSTVQNFSFKTSPGLATPPSGSTSVFGSHPAFGAGPSAGSSISSSTPAFGLGKPEATSAASFSFKSPEASSFASPGFSGFPASMAASPSGSTTAPPLRSGSSVVGFGSPSPHSQAVFAKPSTDVFGGSGISTSVLASGAADNALFTPRDQLMKEELEQFQSQRFTLGKIPLKPPPVELLTV
B4: RAD21 (protein, UniProt Q61550 1-635)
chain: MFYAHFVLSKRGPLAKIWLAAHWDKKLTKAHVFECNLESSVESIISPKVKMALRTSGHLLLGVVRIYHRKAKYLLADCNEAFIKIKMAFRPGVVDLPEENREAAYNAITLPEEFHDFDQPLPDLDDIDVAQQFSLNQSRVEEITMREEVGNISILQENDFGDFGMDDREIMREGSAFEDDDMLVSTSASNLLLEPEQSTSNLNEKMNHLEYEDQYKDDNFGEGNDGGILDDKLISNNDGGIFDDPPALSEAGVMLPEQPAHDDMDEDDNGSLGGPDSPDSVDPVEPMPTMTDQTTLVPNEEEAFALEPIDITVKETKAKRKRKLIVDSVKELDSKTIRAQLSDYSDIVTTLDLAPPTKKLMMWKETGGVEKLFFLPAQPLWNNRLLKLFTRCLTPLVPEDLRKRRKGGEADNLDEFLKEFENPEVPREEQQPQQQQPQPQRDVIDEPIIEEPSRLQDSVMEASRTTIEESAMPPPPPQGVKRKAGQIDPEPSIPPQQVEQMEIPPVELPPEEPPNICQLIPELELLPEKEKEKEKEKEEEEEEEDEDASGGDQDQEERRWNKRTQQMLHGLQRALAKTGAESISLLELCRNTNRKQAAAKFYSFLVLKKQQAIELTQEEPYSDIIATPGPRFHII
B5: BCAS2 (protein, UniProt Q9D287 1-225)
chain: MAGTGLVAGEVVVDALPYFDQGYEAPGVREAAAALVEEETRRYRPTKNYLSYLTAPDYSAFETDIMRNEFERLAARQPIELLSMKRYELPAPSSGQKNDITAWQECVNNSMAQLEHQAVRIENLELMSQHGCNAWKVYNENLVHMIEHAQKELQKLRKHIQDLNWQRKNMQLTAGSKLREMESNWVSLVSKNYEIERTIVQLENEIYQIKQQHGEANKENIRQDF

target: T1, biotin-tagged XAB2 (XPA-binding protein 2) from aviXab2+/+;birA knock-in mice (mouse); assay: affinity purification with mass spectrometry; bXAB2 captured on M-280 streptavidin beads from high-salt nuclear extracts of P15 bXAB2 livers treated with benzonase and RNase A; BirA livers as control; three biological replicates, nLC-MS/MS

binding, binds:
NUP210 (from UniProt Q9QY81 27-1886)
WDR36 (mouse (endogenous in P15 liver))
CDC27 (from UniProt A2A6Q5 1-825)
ANAPC 2 (from UniProt Q8BZQ7 1-837)
SMC3 (from UniProt Q9CW03 1-1217)
MDN1 (mouse (endogenous in P15 liver))
ANAPC1 (from UniProt P53995 1-1944)
NUP205 (mouse (endogenous in P15 liver))
CDC23 (from UniProt Q8BGZ4 1-597)
pre-mRNA-processing factor 19 (PRP19) (from UniProt Q99KP6 1-504)
ANAPC 4 (from UniProt Q91W96 1-807)
FZR1 (from UniProt Q9R1K5 1-493)
BMS1 (from UniProt Q6PGF5 1-1284)
ANAPC 7 (from UniProt Q9WVM3 1-565)
ANAPC 5 (from UniProt Q8BTZ4 1-740)
B1
B2
B3
B4
B5
